# Experimental data taken from the supplement of paper PMC8728848.
# The other results are listed elsewhere or left out.
# B1: SP15308C-bot-338-23-338 (Bacteroides ovatus) (protein)
# chain: DEWTDEQFKQLISFKTQPGGWGVTDVHVRYANSAKYTYNLPVLVSGSTDNTDDRLVSFSLRDDTLDILNFEKFGNRPELYFRELPQKYYSFPKELTIPAGQSHALLPIEFSLDGLDDSQKWALPLKVCEDANGTYAVNPRKYYRTAVLRPILFNEFSGRFSGSSLLGTMAGESDIKFSSTEIKLNVVTDSIVFFYAGQRTEDYEDRINYKVFLQFTGDKVDSKKDLYKMKIWAENEKLKFNSYSTPTYKVSSEMDATKTYLKHTYIVISDIDFDFVDYTSVPNYEIEYNMKGGLSVSRDLDTRKPDEDQGSDSKWW
# What was measured:
# Assay in all cases: glycan array binding signal (z-score within array); higher = stronger binding
# Settings in all cases: glycan notation: IUPAC condensed, linker removed
# [1] = molecular target: Fuc(a1-2)[Gal(a1-3)]Gal(b1-4)[Fuc(a1-3)]GlcNAc(b1-3)GalNAc
# Procedure, shortened: (§1)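 Columns mapping to the same glycan were averaged after glycan names were converted to IUPAC-condensed notation. The data come from 3228 arrays in the Consortium for Functional Glycomics database, limited to those with an available protein sequence. Binding is reported as a within-array Z-score averaged across arrays of one protein sequence and across linkers.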
# [2] = molecular target: Fuc(a1-2)[Gal(a1-4)]Gal(b1-4)GlcNAc
# Procedure, shortened: as §1
# [3] = molecular target: Fuc(a1-2)[GalNAc(a1-3)]Gal
# Procedure, shortened: as §1
# [4] = molecular target: Fuc(a1-2)[GalNAc(a1-3)]Gal(b1-3)GalNAc(a1-3)[Fuc(a1-2)]Gal(b1-4)GlcNAc
# Procedure, shortened: as §1
# [5] = molecular target: Fuc(a1-2)[GalNAc(a1-3)]Gal(b1-3)GalNAc(b1-3)Gal(a1-4)Gal(b1-4)Glc
# Procedure, shortened: as §1
# [6] = molecular target: Fuc(a1-2)[GalNAc(a1-3)]Gal(b1-3)GlcNAc
# Procedure, shortened: as §1
# [7] = molecular target: Fuc(a1-2)[GalNAc(a1-3)]Gal(b1-3)GlcNAc(b1-2)Man(a1-3)[Fuc(a1-2)[GalNAc(a1-3)]Gal(b1-3)GlcNAc(b1-2)Man(a1-6)]Man(b1-4)GlcNAc(b1-4)GlcNAc
# Procedure, shortened: as §1
# [8] = molecular target: Fuc(a1-2)[GalNAc(a1-3)]Gal(b1-3)GlcNAc(b1-2)Man(a1-3)[Fuc(a1-2)[GalNAc(a1-3)]Gal(b1-3)GlcNAc(b1-2)Man(a1-6)]Man(b1-4)GlcNAc(b1-4)[Fuc(a1-6)]GlcNAc
# Procedure, shortened: as §1
# [9] = molecular target: Fuc(a1-2)[GalNAc(a1-3)]Gal(b1-3)GlcNAc(b1-3)GalNAc
# Procedure, shortened: as §1
# [10] = molecular target: Fuc(a1-2)[GalNAc(a1-3)]Gal(b1-3)GlcNAc(b1-6)GalNAc
# Procedure, shortened: as §1
# [11] = molecular target: Fuc(a1-2)[GalNAc(a1-3)]Gal(b1-4)Glc
# Procedure, shortened: as §1
# [12] = molecular target: Fuc(a1-2)[GalNAc(a1-3)]Gal(b1-4)GlcNAc
# Procedure, shortened: as §1
# [13] = molecular target: Fuc(a1-2)[GalNAc(a1-3)]Gal(b1-4)GlcNAc(b1-2)Man
# Procedure, shortened: as §1
# [14] = molecular target: Fuc(a1-2)[GalNAc(a1-3)]Gal(b1-4)GlcNAc(b1-2)Man(a1-3)[Fuc(a1-2)[GalNAc(a1-3)]Gal(b1-4)GlcNAc(b1-2)Man(a1-6)]Man(b1-4)GlcNAc(b1-4)GlcNAc
# Procedure, shortened: as §1
# [15] = molecular target: Fuc(a1-2)[GalNAc(a1-3)]Gal(b1-4)GlcNAc(b1-2)Man(a1-3)[Fuc(a1-2)[GalNAc(a1-3)]Gal(b1-4)GlcNAc(b1-2)Man(a1-6)]Man(b1-4)GlcNAc(b1-4)[Fuc(a1-6)]GlcNAc
# Procedure, shortened: as §1
# [16] = molecular target: Fuc(a1-2)[GalNAc(a1-3)]Gal(b1-4)GlcNAc(b1-3)Gal(b1-4)GlcNAc
# Procedure, shortened: as §1
# [17] = molecular target: Fuc(a1-2)[GalNAc(a1-3)]Gal(b1-4)GlcNAc(b1-3)Gal(b1-4)GlcNAc(b1-3)Gal(b1-4)GlcNAc
# Procedure, shortened: as §1
# [18] = molecular target: Fuc(a1-2)[GalNAc(a1-3)]Gal(b1-4)GlcNAc(b1-3)GalNAc
# Procedure, shortened: as §1
# [19] = molecular target: Fuc(a1-2)[GalNAc(a1-3)]Gal(b1-4)GlcNAc(b1-3)[Fuc(a1-2)[GalNAc(a1-3)]Gal(b1-4)GlcNAc(b1-6)]GalNAc
# Procedure, shortened: as §1
# [20] = molecular target: Fuc(a1-2)[GalNAc(a1-3)]Gal(b1-4)GlcNAc(b1-6)GalNAc
# Procedure, shortened: as §1
# [21] = molecular target: Fuc(a1-2)[GalNAc(a1-3)]Gal(b1-4)[Fuc(a1-3)]GlcNAc
# Procedure, shortened: as §1
# [22] = molecular target: Fuc(a1-2)[GalNAc(a1-3)]Gal(b1-4)[Fuc(a1-3)]GlcNAc(b1-3)GalNAc
# Procedure, shortened: as §1
# [23] = molecular target: Fuc(a1-2)[GalNAc(a1-4)]Gal(b1-4)GlcNAc
# Procedure, shortened: as §1
# [24] = molecular target: Fuc(a1-2)[GalNAc(b1-3)]Gal
# Procedure, shortened: as §1
# Fuc(a1-3)GlcNAc = molecular target: Fuc(a1-3)GlcNAc
# Procedure, shortened: as §1
# [25] = molecular target: Fuc(a1-3)[Gal(b1-4)]Glc6S
# Procedure, shortened: as §1
# [26] = molecular target: Fuc(a1-3)[Gal(b1-4)]GlcNAc
# Procedure, shortened: as §1
# [27] = molecular target: Fuc(a1-3)[Gal(b1-4)]GlcNAc(b1-2)Man
# Procedure, shortened: as §1
# [28] = molecular target: Fuc(a1-3)[Gal(b1-4)]GlcNAc(b1-2)Man(a1-3)[Fuc(a1-3)[Gal(b1-4)]GlcNAc(b1-2)Man(a1-6)]Man(b1-4)GlcNAc(b1-4)GlcNAc
# Procedure, shortened: as §1
# [29] = molecular target: Fuc(a1-3)[Gal(b1-4)]GlcNAc(b1-2)Man(a1-3)[Fuc(a1-3)[Gal(b1-4)]GlcNAc(b1-2)Man(a1-6)]Man(b1-4)GlcNAc(b1-4)[Fuc(a1-6)]GlcNAc
# Procedure, shortened: as §1
# [30] = molecular target: Fuc(a1-3)[Gal(b1-4)]GlcNAc(b1-3)Gal(b1-3)[Fuc(a1-4)]GlcNAc
# Procedure, shortened: as §1
# [31] = molecular target: Fuc(a1-3)[Gal(b1-4)]GlcNAc(b1-3)Gal(b1-4)[Fuc(a1-3)]GlcNAc
# Procedure, shortened: as §1
# [32] = molecular target: Fuc(a1-3)[Gal(b1-4)]GlcNAc(b1-3)Gal(b1-4)[Fuc(a1-3)]GlcNAc(b1-3)Gal(b1-4)[Fuc(a1-3)]GlcNAc
# Procedure, shortened: as §1
# [33] = molecular target: Fuc(a1-3)[Gal(b1-4)]GlcNAc(b1-3)GalNAc
# Procedure, shortened: as §1
# [34] = molecular target: Fuc(a1-3)[Gal(b1-4)]GlcNAc(b1-6)GalNAc
# Procedure, shortened: as §1
# [35] = molecular target: Fuc(a1-3)[Gal(b1-4)]GlcNAc(b1-6)[Gal(b1-3)GlcNAc(b1-3)]Gal(b1-4)Glc
# Procedure, shortened: as §1
# [36] = molecular target: Fuc(a1-3)[Gal(b1-4)]GlcNAc6S
# Procedure, shortened: as §1
# [37] = molecular target: Fuc(a1-3)[Gal3S(b1-4)]Glc
# Procedure, shortened: as §1
binder,measurement,setting,value
B1,glycan array binding signal (z-score),[1],0.386
same,glycan array binding signal (z-score),[2],0.026
same,glycan array binding signal (z-score),[3],0.382
same,glycan array binding signal (z-score),[4],-0.332
same,glycan array binding signal (z-score),[5],-0.514
same,glycan array binding signal (z-score),[6],-0.228
same,glycan array binding signal (z-score),[7],0.307
same,glycan array binding signal (z-score),[8],-0.165
same,glycan array binding signal (z-score),[9],-0.104
same,glycan array binding signal (z-score),[10],-0.438
same,glycan array binding signal (z-score),[11],-0.504
same,glycan array binding signal (z-score),[12],-0.377
same,glycan array binding signal (z-score),[13],-0.097
same,glycan array binding signal (z-score),[14],0.507
same,glycan array binding signal (z-score),[15],-0.033
same,glycan array binding signal (z-score),[16],-0.123
same,glycan array binding signal (z-score),[17],-0.548
same,glycan array binding signal (z-score),[18],0.127
same,glycan array binding signal (z-score),[19],-0.529
same,glycan array binding signal (z-score),[20],-0.332
same,glycan array binding signal (z-score),[21],0.332
same,glycan array binding signal (z-score),[22],1.93
same,glycan array binding signal (z-score),[23],-0.615
same,glycan array binding signal (z-score),[24],-0.647
same,glycan array binding signal (z-score),Fuc(a1-3)GlcNAc,-0.719
same,glycan array binding signal (z-score),[25],-0.262
same,glycan array binding signal (z-score),[26],-0.26
same,glycan array binding signal (z-score),[27],-0.422
same,glycan array binding signal (z-score),[28],-0.728
same,glycan array binding signal (z-score),[29],2.11
same,glycan array binding signal (z-score),[30],0.329
same,glycan array binding signal (z-score),[31],-0.234
same,glycan array binding signal (z-score),[32],-0.366
same,glycan array binding signal (z-score),[33],-0.206
same,glycan array binding signal (z-score),[34],0.876
same,glycan array binding signal (z-score),[35],-0.143
same,glycan array binding signal (z-score),[36],-0.613
same,glycan array binding signal (z-score),[37],-0.572

# Some of the entries so far, with bars between the fields:
binder | measurement | setting | value
B1 | glycan array binding signal (z-score) | [33] | -0.206
same | glycan array binding signal (z-score) | [34] | 0.876
